Reference: doi:10.1101/2021.08.04.454762
No constants are given. Whether binding was seen depends on the method and setting. In cells and extracts the contact can be indirect. A result given as binding can be weak or reduced; the word gives no strength.

The chains behind the UniProt entries cited, without tags or fusion partners. Where a name states a change or a piece, a line headed by the entry shows the natural chain unless it says otherwise.
UniProt Q15554: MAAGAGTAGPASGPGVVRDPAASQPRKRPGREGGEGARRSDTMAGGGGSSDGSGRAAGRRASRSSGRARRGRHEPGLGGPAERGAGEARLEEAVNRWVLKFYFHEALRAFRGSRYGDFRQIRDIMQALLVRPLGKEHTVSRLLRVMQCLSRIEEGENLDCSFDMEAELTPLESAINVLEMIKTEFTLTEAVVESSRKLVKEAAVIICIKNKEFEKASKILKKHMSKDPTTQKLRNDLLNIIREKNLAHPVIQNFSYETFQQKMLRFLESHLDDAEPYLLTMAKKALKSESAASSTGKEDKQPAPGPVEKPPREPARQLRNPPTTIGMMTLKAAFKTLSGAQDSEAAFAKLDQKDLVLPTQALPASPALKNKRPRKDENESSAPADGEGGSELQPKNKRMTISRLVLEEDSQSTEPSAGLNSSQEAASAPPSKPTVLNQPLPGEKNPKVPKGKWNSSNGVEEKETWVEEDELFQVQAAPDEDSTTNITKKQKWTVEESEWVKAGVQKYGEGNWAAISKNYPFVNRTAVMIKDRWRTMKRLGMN
UniProt O43524: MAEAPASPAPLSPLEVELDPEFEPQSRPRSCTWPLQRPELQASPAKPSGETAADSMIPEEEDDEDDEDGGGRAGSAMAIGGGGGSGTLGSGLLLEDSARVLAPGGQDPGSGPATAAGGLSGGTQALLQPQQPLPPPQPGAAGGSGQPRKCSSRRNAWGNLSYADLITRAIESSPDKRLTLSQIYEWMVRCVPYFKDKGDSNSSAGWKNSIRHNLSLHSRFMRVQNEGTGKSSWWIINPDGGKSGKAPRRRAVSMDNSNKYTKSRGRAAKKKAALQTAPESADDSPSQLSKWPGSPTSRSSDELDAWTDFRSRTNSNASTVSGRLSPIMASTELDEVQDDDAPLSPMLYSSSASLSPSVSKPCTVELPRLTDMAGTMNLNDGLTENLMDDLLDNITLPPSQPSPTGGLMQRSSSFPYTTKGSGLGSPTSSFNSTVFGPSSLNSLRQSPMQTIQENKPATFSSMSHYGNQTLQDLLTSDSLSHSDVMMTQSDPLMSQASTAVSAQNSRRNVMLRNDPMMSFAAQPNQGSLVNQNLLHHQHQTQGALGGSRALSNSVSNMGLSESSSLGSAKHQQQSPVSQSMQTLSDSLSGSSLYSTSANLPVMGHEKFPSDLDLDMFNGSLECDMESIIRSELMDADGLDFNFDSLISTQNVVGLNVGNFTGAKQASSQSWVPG

Target: telomeric repeat binding factor 2 (TRF2) (human (endogenous in skeletal muscle biopsies and BJ-HELT fibroblasts)) (UniProt Q15554)
Assay: proximity ligation

| binding | Substance |
| --- | --- |
| binds | FOXO3a ΔCR3 (pWPIR-ΔCR3-GFP) (from UniProt O43524) |
| binds | FOXO3a ΔCR2C (pWPIR-ΔCR2C-GFP) (from UniProt O43524) |
